These are yes or no findings as the source states them, for the method shown. Some binding calls cover weakened binding; strength is not graded here.
Molecular target: SdrG (UniProt Q9KI13)
Assay: ELISA; competition: Fg coated (5 μg/ml); GST-vWbp-N (6 nM), GST-Coa-N (400 nM) or SdrG (50 nM) mixed with increasing concentrations of Fg β-chain (1-25) peptide or scrambled peptide; detected with HRP anti-GST or anti-His; both purified

Sequences of proteins named here, by UniProt entry; tags and fusion partners are left off. Residues count along the entry.
UniProt Q9KI13, residues 51-895: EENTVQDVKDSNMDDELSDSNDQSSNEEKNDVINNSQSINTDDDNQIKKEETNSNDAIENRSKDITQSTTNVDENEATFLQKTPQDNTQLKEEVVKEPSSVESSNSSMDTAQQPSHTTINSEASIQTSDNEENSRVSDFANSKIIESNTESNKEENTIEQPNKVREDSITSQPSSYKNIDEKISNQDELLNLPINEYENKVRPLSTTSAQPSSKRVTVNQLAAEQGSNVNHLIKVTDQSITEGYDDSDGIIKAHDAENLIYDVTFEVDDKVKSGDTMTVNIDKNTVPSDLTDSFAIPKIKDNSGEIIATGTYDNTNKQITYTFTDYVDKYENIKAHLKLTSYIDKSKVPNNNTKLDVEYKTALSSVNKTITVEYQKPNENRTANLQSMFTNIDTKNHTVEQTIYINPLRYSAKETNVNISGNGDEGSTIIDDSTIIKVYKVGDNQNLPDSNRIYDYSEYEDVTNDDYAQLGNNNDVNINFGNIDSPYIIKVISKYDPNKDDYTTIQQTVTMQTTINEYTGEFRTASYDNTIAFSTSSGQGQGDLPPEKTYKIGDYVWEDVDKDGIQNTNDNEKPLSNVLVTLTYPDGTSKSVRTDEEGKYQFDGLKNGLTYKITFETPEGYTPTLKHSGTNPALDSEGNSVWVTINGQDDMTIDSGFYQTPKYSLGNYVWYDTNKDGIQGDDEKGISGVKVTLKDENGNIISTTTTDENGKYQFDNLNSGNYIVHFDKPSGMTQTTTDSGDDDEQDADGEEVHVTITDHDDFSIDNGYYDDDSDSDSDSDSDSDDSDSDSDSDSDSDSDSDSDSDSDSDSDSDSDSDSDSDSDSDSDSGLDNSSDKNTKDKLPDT

B1: Fg β-chain peptide (1-25) (peptide)
peptide: QGVNDNEEGFFSARGHRPLDKKREE
In the case of B1, the binding is reported as “binds”.

— paper PMC6476931
